Measurements: PMC11090908
Substitutions are numbered along the chain they refer to. These are yes or no findings as the source states them, for the method shown. In cells and extracts the contact can be indirect. Some entries that bind do so weakly or less than the wild type. Where a sequence is shown, tags or fusion partners need not be part of it.

By UniProt entry, the sequences of proteins in these tests, tags left out. Where a name states a change or a piece, a line headed by the entry shows the natural chain unless it says otherwise.
UniProt O43670: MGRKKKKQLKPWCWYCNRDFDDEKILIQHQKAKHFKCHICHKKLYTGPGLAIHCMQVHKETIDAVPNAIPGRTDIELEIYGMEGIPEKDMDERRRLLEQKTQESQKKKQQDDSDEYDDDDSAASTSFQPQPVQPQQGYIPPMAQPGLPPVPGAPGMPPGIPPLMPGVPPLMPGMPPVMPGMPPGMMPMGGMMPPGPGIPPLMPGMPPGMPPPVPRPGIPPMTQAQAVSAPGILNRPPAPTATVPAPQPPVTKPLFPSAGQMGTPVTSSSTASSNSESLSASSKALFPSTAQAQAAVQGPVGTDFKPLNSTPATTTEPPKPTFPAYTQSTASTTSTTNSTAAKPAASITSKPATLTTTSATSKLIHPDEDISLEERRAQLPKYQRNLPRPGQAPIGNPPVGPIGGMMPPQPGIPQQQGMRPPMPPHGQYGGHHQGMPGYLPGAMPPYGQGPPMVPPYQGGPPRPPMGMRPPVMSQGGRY

Tests used:
[1] = target: T1, flag-hAurora-A (wild type) (human) (UniProt O14965); test: co-IP; flag-tagged proteins co-expressed with GFP-BuGZ-N in HEK293T for 24 h; lysate on flag-agarose 2 h at 4°C; Western blot
T1 sequence: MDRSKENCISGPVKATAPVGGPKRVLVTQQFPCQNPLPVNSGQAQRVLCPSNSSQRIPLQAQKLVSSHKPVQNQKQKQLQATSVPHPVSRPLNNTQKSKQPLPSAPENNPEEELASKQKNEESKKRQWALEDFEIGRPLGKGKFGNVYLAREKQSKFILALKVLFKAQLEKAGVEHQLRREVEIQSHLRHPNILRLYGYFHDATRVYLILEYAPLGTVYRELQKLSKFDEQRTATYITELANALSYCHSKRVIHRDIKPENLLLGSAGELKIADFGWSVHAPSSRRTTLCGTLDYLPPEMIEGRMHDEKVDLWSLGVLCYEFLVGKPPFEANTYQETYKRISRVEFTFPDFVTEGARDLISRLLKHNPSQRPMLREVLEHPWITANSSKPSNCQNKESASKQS

[2] = target: T2, flag-hAurora-A-2A (R195A and R189A) (human) (UniProt O14965); test: as above
T2 sequence: T1 sequence with R189A, R195A

[3] = target: T3, flag-hAurora-A-3A (R195A, R189A and E269A) (human) (UniProt O14965); test: as above
T3 sequence: T1 sequence with R189A, R195A, E269A

[4] = target: T4, flag-hAurora-A-R195A (human) (UniProt O14965); test: as above
T4 sequence: T1 sequence with R195A

[5] = target: T5, GFP-Aurora-A (stably expressed in HeLa cells) (human) (UniProt O14965); test: co-IP; HeLa cells stably expressing GFP-Aurora-A, in G2 (16 h Ro-3306) or mitosis (1.5 h after release, with MG132); GFP-Trap agarose; Western blot
T5 sequence: T1 sequence

“GFP-BuGZ-N (from UniProt O43670 1-92) (domain or fragment)” was tested, and the binding [1] was “binds”, the binding [2] was “binds” and the binding [3] was “binds”. For the same substance, the binding [4] was “binds”.

In the case of “BuGZ (endogenous, HeLa) (from UniProt O43670 1-478)”, the binding [5] is reported as “binds”.
